Laboratory results reported in US20130281646A1, “MULTIFUNCTIONAL LINKERS” (priority 2009, published 2013).
At least one peptide structure holds a part that was inferred or is arguable (an end, a ring closure or a residue).

The chains behind the UniProt entries cited, without tags or fusion partners.
UniProt P30989, whole entry: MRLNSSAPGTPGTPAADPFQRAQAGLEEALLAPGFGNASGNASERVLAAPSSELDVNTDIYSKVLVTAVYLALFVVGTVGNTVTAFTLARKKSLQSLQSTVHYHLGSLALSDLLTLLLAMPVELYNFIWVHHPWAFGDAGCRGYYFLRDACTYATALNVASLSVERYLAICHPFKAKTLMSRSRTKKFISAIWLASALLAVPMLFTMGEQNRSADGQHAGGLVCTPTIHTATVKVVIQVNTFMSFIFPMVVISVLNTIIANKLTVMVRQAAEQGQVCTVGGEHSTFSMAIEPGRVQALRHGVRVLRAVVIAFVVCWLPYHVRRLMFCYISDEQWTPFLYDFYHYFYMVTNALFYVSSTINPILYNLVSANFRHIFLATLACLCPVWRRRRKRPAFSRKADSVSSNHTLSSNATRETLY

Biological target: T1, neurotensin GPCR (NTSR1) (Homo sapiens, UniProt P30989)
T1 construct: host or cells: CHO-K1 (NTSR1 CHO-K1 DA, division-arrested reporter cells)
Experiment: commercial neurotensin GPCR assay (Invitrogen NTSR1 CHO-K1 DA)
Assay type: cell-based
Conditions: neurotensin agonist assay, NTSR1 CHO-K1 DA cells; for EC50: read-out: observed affinity

Row | SMILES | Emax | EC50 [nM]
1 | CC[C@H](C)[C@H](NC(=O)[C@H](Cc1ccc(O)cc1)NC(=O)[C@@H]1CCCN1C(=O)[C@H](CCCNC(=N)N)NC(=O)[C@H](CCCNC(=N)N)NC(=O)CN(C)C(=O)CN(C)C(=O)CN(C)C(=O)CN(C)C(=O)CN(C)C(=O)CCCn1cc(C[C@H](NC(=O)[C@@H]2CCCN2C(=O)[C@@H]2CCCN2C(=O)[C@@H]2CCCN2C(=O)[C@@H]2CCCN2C(=O)[C@@H]2CCCN2C(=O)[C@@H]2CCCN2C(=O)[C@@H]2CCCN2C(=O)[C@@H]2CCCN2C(=O)[C@@H]2CCCN2C(=O)[C@@H]2CCCN2C(=O)[C@@H]2CCCN2C(=O)[C@@H]2CCCN2C(=O)[C@@H]2CCCN2C(=O)[C@@H]2CCCN2C(=O)[C@@H]2CCCN2C(=O)[C@@H]2CCCN2C(=O)[C@@H]2CCCN2C(=O)[C@@H]2CCCN2C(=O)[C@@H]2CCCN2C(=O)[C@@H]2CCCN2C(=O)[C@@H]2CCCN2C(=O)[C@@H]2CCCN2C(=O)[C@@H]2CCCN2C(=O)[C@@H]2CCCN2C(=O)[C@@H]2CCCN2C(=O)[C@@H](N)Cc2cn(CCCC(=O)N(C)CC(=O)N(C)CC(=O)N(C)CC(=O)N(C)CC(=O)N(C)CC(=O)N[C@@H](CCCNC(=N)N)C(=O)N[C@@H](CCCNC(=N)N)C(=O)N3CCC[C@H]3C(=O)N[C@@H](Cc3ccc(O)cc3)C(=O)N[C@H](C(=O)N[C@@H](CC(C)C)C(=O)O)[C@@H](C)CC)nn2)C(=O)O)nn1)C(=O)N[C@@H](CC(C)C)C(=O)O [Pro25] | 2.7±0.1 corrected increase in blue/green fluorescence ratio | 27 ± 2
2 | CC[C@H](C)[C@H](NC(=O)[C@H](Cc1ccc(O)cc1)NC(=O)[C@@H]1CCCN1C(=O)[C@H](CCCNC(=N)N)NC(=O)[C@H](CCCNC(=N)N)NC(=O)CN(C)C(=O)CN(C)C(=O)CN(C)C(=O)CN(C)C(=O)CN(C)C(=O)CCCn1cc(C[C@H](NC(=O)[C@@H]2CCCN2C(=O)[C@@H]2CCCN2C(=O)[C@@H]2CCCN2C(=O)[C@@H]2CCCN2C(=O)[C@@H]2CCCN2C(=O)[C@@H](N)Cc2cn(CCCC(=O)N(C)CC(=O)N(C)CC(=O)N(C)CC(=O)N(C)CC(=O)N(C)CC(=O)N[C@@H](CCCNC(=N)N)C(=O)N[C@@H](CCCNC(=N)N)C(=O)N3CCC[C@H]3C(=O)N[C@@H](Cc3ccc(O)cc3)C(=O)N[C@H](C(=O)N[C@@H](CC(C)C)C(=O)O)[C@@H](C)CC)nn2)C(=O)O)nn1)C(=O)N[C@@H](CC(C)C)C(=O)O [Pro5] | 2.6±0.1 corrected increase in blue/green fluorescence ratio | 25 ± 4
3 | CC[C@H](C)[C@H](NC(=O)[C@H](Cc1ccc(O)cc1)NC(=O)[C@@H]1CCCN1C(=O)[C@H](CCCNC(=N)N)NC(=O)[C@H](CCCNC(=N)N)NC(=O)CN(C)C(=O)CN(C)C(=O)CN(C)C(=O)CN(C)C(=O)CN(C)C(=O)CCCn1cc(C[C@H](NC(=O)[C@@H]2CCCN2C(=O)[C@@H]2CCCN2C(=O)[C@@H]2CCCN2C(=O)[C@@H]2CCCN2C(=O)[C@@H]2CCCN2C(=O)[C@@H]2CCCN2C(=O)[C@@H]2CCCN2C(=O)[C@@H]2CCCN2C(=O)[C@@H]2CCCN2C(=O)[C@@H]2CCCN2C(=O)[C@@H]2CCCN2C(=O)[C@@H]2CCCN2C(=O)[C@@H]2CCCN2C(=O)[C@@H]2CCCN2C(=O)[C@@H]2CCCN2C(=O)[C@@H]2CCCN2C(=O)[C@@H]2CCCN2C(=O)[C@@H]2CCCN2C(=O)[C@@H]2CCCN2C(=O)[C@@H]2CCCN2C(=O)[C@@H](N)Cc2cn(CCCC(=O)N(C)CC(=O)N(C)CC(=O)N(C)CC(=O)N(C)CC(=O)N(C)CC(=O)N[C@@H](CCCNC(=N)N)C(=O)N[C@@H](CCCNC(=N)N)C(=O)N3CCC[C@H]3C(=O)N[C@@H](Cc3ccc(O)cc3)C(=O)N[C@H](C(=O)N[C@@H](CC(C)C)C(=O)O)[C@@H](C)CC)nn2)C(=O)O)nn1)C(=O)N[C@@H](CC(C)C)C(=O)O [Pro20] | 2.66±0.05 corrected increase in blue/green fluorescence ratio | 18 ± 2
4 | CC[C@H](C)[C@H](NC(=O)[C@H](Cc1ccc(O)cc1)NC(=O)[C@@H]1CCCN1C(=O)[C@H](CCCNC(=N)N)NC(=O)[C@H](CCCNC(=N)N)NC(=O)CN(C)C(=O)CN(C)C(=O)CN(C)C(=O)CN(C)C(=O)CN(C)C(=O)CCCn1cc(C[C@H](NC(=O)[C@@H]2CCCN2C(=O)[C@@H]2CCCN2C(=O)[C@@H]2CCCN2C(=O)[C@@H]2CCCN2C(=O)[C@@H]2CCCN2C(=O)[C@@H]2CCCN2C(=O)[C@@H]2CCCN2C(=O)[C@@H]2CCCN2C(=O)[C@@H]2CCCN2C(=O)[C@@H]2CCCN2C(=O)[C@@H](N)Cc2cn(CCCC(=O)N(C)CC(=O)N(C)CC(=O)N(C)CC(=O)N(C)CC(=O)N(C)CC(=O)N[C@@H](CCCNC(=N)N)C(=O)N[C@@H](CCCNC(=N)N)C(=O)N3CCC[C@H]3C(=O)N[C@@H](Cc3ccc(O)cc3)C(=O)N[C@H](C(=O)N[C@@H](CC(C)C)C(=O)O)[C@@H](C)CC)nn2)C(=O)O)nn1)C(=O)N[C@@H](CC(C)C)C(=O)O [Pro10] | 2.60±0.05 corrected increase in blue/green fluorescence ratio | 28 ± 3
